Data published in paper doi:10.1101/2023.09.13.557663.

B1: DOK1 (protein, UniProt Q99704 1-481)
chain: MDGAVMEGPLFLQSQRFGTKRWRKTWAVLYPASPHGVARLEFFDHKGSSSGGGRGSSRRLDCKVIRLAECVSVAPVTVETPPEPGATAFRLDTAQRSHLLAADAPSSAAWVQTLCRNAFPKGSWTLAPTDNPPKLSALEMLENSLYSPTWEGSQFWVTVQRTEAAERCGLHGSYVLRVEAERLTLLTVGAQSQILEPLLSWPYTLLRRYGRDKVMFSFEAGRRCPSGPGTFTFQTAQGNDIFQAVETAIHRQKAQGKAGQGHDVLRADSHEGEVAEGKLPSPPGPQELLDSPPALYAEPLDSLRIAPCPSQDSLYSDPLDSTSAQAGEGVQRKKPLYWDLYEHAQQQLLKAKLTDPKEDPIYDEPEGLAPVPPQGLYDLPREPKDAWWCQARVKEEGYELPYNPATDDYAVPPPRSTKPLLAPKPQGPAFPEPGTATGSGIKSHNSALYSQVQKSGASGSWDCGLSRVGTDKTGVKSEGST
B2: SH3BP1 (protein, UniProt Q9Y3L3 1-701)
chain: MMKRQLHRMRQLAQTGSLGRTPETAEFLGEDLLQVEQRLEPAKRAAHNIHKRLQACLQGQSGADMDKRVKKLPLMALSTTMAESFKELDPDSSMGKALEMSCAIQNQLARILAEFEMTLERDVLQPLSRLSEEELPAILKHKKSLQKLVSDWNTLKSRLSQATKNSGSSQGLGGSPGSHSHTTMANKVETLKEEEEELKRKVEQCRDEYLADLYHFVTKEDSYANYFIRLLEIQADYHRRSLSSLDTALAELRENHGQADHSPSMTATHFPRVYGVSLATHLQELGREIALPIEACVMMLLSEGMKEEGLFRLAAGASVLKRLKQTMASDPHSLEEFCSDPHAVAGALKSYLRELPEPLMTFDLYDDWMRAASLKEPGARLQALQEVCSRLPPENLSNLRYLMKFLARLAEEQEVNKMTPSNIAIVLGPNLLWPPEKEGDQAQLDAASVSSIQVVGVVEALIQSADTLFPGDINFNVSGLFSAVTLQDTVSDRLASEELPSTAVPTPATTPAPAPAPAPAPAPALASAATKERTESEVPPRPASPKVTRSPPETAAPVEDMARRTKRPAPARPTMPPPQVSGSRSSPPAPPLPPGSGSPGTPQALPRRLVGSSLRAPTVPPPLPPTPPQPARRQSRRSPASPSPASPGPASPSPVSLSNPAQVDLGAATAEGGAPEAISGVPTPPAIPPQPRPRSLASETN
B3: HIP1 (protein, UniProt O00291 1-1037)
chain: MDRMASSMKQVPNPLPKVLSRRGVGAGLEAAERESFERTQTVSINKAINTQEVAVKEKHARTCILGTHHEKGAQTFWSVVNRLPLSSNAVLCWKFCHVFHKLLRDGHPNVLKDSLRYRNELSDMSRMWGHLSEGYGQLCSIYLKLLRTKMEYHTKNPRFPGNLQMSDRQLDEAGESDVNNFFQLTVEMFDYLECELNLFQTVFNSLDMSRSVSVTAAGQCRLAPLIQVILDCSHLYDYTVKLLFKLHSCLPADTLQGHRDRFMEQFTKLKDLFYRSSNLQYFKRLIQIPQLPENPPNFLRASALSEHISPVVVIPAEASSPDSEPVLEKDDLMDMDASQQNLFDNKFDDIFGSSFSSDPFNFNSQNGVNKDEKDHLIERLYREISGLKAQLENMKTESQRVVLQLKGHVSELEADLAEQQHLRQQAADDCEFLRAELDELRRQREDTEKAQRSLSEIERKAQANEQRYSKLKEKYSELVQNHADLLRKNAEVTKQVSMARQAQVDLEREKKELEDSLERISDQGQRKTQEQLEVLESLKQELATSQRELQVLQGSLETSAQSEANWAAEFAELEKERDSLVSGAAHREEELSALRKELQDTQLKLASTEESMCQLAKDQRKMLLVGSRKAAEQVIQDALNQLEEPPLISCAGSADHLLSTVTSISSCIEQLEKSWSQYLACPEDISGLLHSITLLAHLTSDAIAHGATTCLRAPPEPADSLTEACKQYGRETLAYLASLEEEGSLENADSTAMRNCLSKIKAIGEELLPRGLDIKQEELGDLVDKEMAATSAAIETATARIEEMLSKSRAGDTGVKLEVNERILGCCTSLMQAIQVLIVASKDLQREIVESGRGTASPKEFYAKNSRWTEGLISASKAVGWGATVMVDAADLVVQGRGKFEELMVCSHEIAASTAQLVAASKVKADKDSPNLAQLQQASRGVNQATAGVVASTISGKSQIEETDNMDFSSMTLTQIKRQEMDSQVRVLELENELQKERQKLGELRKKHYELAGVAEGWEEGTEASPPTLQEVVTEKE
B4: UBAP1 (protein, UniProt Q9NZ09 1-502)
chain: MASKKLGADFHGTFSYLDDVPFKTGDKFKTPAKVGLPIGFSLPDCLQVVREVQYDFSLEKKTIEWAEEIKKIEEAEREAECKIAEAEAKVNSKSGPEGDSKMSFSKTHSTATMPPPINPILASLQHNSILTPTRVSSSATKQKVLSPPHIKADFNLADFECEEDPFDNLELKTIDEKEELRNILVGTTGPIMAQLLDNNLPRGGSGSVLQDEEVLASLERATLDFKPLHKPNGFITLPQLGNCEKMSLSSKVSLPPIPAVSNIKSLSFPKLDSDDSNQKTAKLASTFHSTSCLRNGTFQNSLKPSTQSSASELNGHHTLGLSALNLDSGTEMPALTSSQMPSLSVLSVCTEESSPPNTGPTVTPPNFSVSQVPNMPSCPQAYSELQMLSPSERQCVETVVNMGYSYECVLRAMKKKGENIEQILDYLFAHGQLCEKGFDPLLVEEALEMHQCSEEKMMEFLQLMSKFKEMGFELKDIKEVLLLHNNDQDNALEDLMARAGAS
B5: USP8 (protein, UniProt P40818 1-1118)
chain: MPAVASVPKELYLSSSLKDLNKKTEVKPEKISTKSYVHSALKIFKTAEECRLDRDEERAYVLYMKYVTVYNLIKKRPDFKQQQDYFHSILGPGNIKKAVEEAERLSESLKLRYEEAEVRKKLEEKDRQEEAQRLQQKRQETGREDGGTLAKGSLENVLDSKDKTQKSNGEKNEKCETKEKGAITAKELYTMMTDKNISLIIMDARRMQDYQDSCILHSLSVPEEAISPGVTASWIEAHLPDDSKDTWKKRGNVEYVVLLDWFSSAKDLQIGTTLRSLKDALFKWESKTVLRNEPLVLEGGYENWLLCYPQYTTNAKVTPPPRRQNEEVSISLDFTYPSLEESIPSKPAAQTPPASIEVDENIELISGQNERMGPLNISTPVEPVAASKSDVSPIIQPVPSIKNVPQIDRTKKPAVKLPEEHRIKSESTNHEQQSPQSGKVIPDRSTKPVVFSPTLMLTDEEKARIHAETALLMEKNKQEKELRERQQEEQKEKLRKEEQEQKAKKKQEAEENEITEKQQKAKEEMEKKESEQAKKEDKETSAKRGKEITGVKRQSKSEHETSDAKKSVEDRGKRCPTPEIQKKSTGDVPHTSVTGDSGSGKPFKIKGQPESGILRTGTFREDTDDTERNKAQREPLTRARSEEMGRIVPGLPSGWAKFLDPITGTFRYYHSPTNTVHMYPPEMAPSSAPPSTPPTHKAKPQIPAERDREPSKLKRSYSSPDITQAIQEEEKRKPTVTPTVNRENKPTCYPKAEISRLSASQIRNLNPVFGGSGPALTGLRNLGNTCYMNSILQCLCNAPHLADYFNRNCYQDDINRSNLLGHKGEVAEEFGIIMKALWTGQYRYISPKDFKITIGKINDQFAGYSQQDSQELLLFLMDGLHEDLNKADNRKRYKEENNDHLDDFKAAEHAWQKHKQLNESIIVALFQGQFKSTVQCLTCHKKSRTFEAFMYLSLPLASTSKCTLQDCLRLFSKEEKLTDNNRFYCSHCRARRDSLKKIEIWKLPPVLLVHLKRFSYDGRWKQKLQTSVDFPLENLDLSQYVIGPKNNLKKYNLFSVSNHYGGLDGGHYTAYCKNAARQRWFKFDDHEVSDISVSSVKSSAAYILFYTSLGPRVTDVAT

Target: wtEGFR-TurboID (transient, HEK293T) (UniProt P00533)
Assay: proximity labelling

B1 was tested. Which binding did it give?
Its binding is “binds”.

How did the binding turn out when B2 was run?
Its binding is “binds”.

With B3 as the binder, how does the binding read?
The binding was “binds”.

B4 was tested. Which binding did it give?
The binding was “binds”.

B5 was tested. Which binding did it give?
Its binding is “binds”.

No constants are given. Whether binding was seen depends on the method and setting. Binding seen in cells or lysates may run through a third protein. Here binding means that the protein was enriched with, or labelled near, the bait; the list need not be complete.
